In PubChem BioAssay AID180 (DTP/NCI, 2004):
The list does not hold the whole screen: it gathers some chemical classes. Not every dose and run of a compound is shown. T/C gives the treated animals as a percentage of the vehicle group. Some entries show no survivor count and are marked so; the dose need not have been tolerated. Schedules are NCI's codes, read here as Q, the interval in days (D) or hours (H), X, the number of doses. Some entries were tested several times; the values are given in rising order.

System: BDF1 mice, Adenocarcinoma 755 s.c., tumor weight T/C
Experiment: NCI In Vivo Anticancer Drug Screen. Data for tumor model Adenocarcinoma 755 (subcutaneous) in B6D2F1 (BDF1) mice
Settings: T/C endpoint: mean tumor weight, schedule: Q01DX011 (ip), vehicle: carboxymethylcellulose (CMC), evaluation day not shown, higher T/C = larger tumour
Procedure: The antitumor activity of compounds was measured in mice bearing transplantable tumors. Survival or tumor size were measured and the results are expressed as the measurement made in the treated group (T) divided by the measurement made in the vehicle treated control group (C). The tumor model used in this assay is Adenocarcinoma 755 (subcutaneous) in B6D2F1 (BDF1) mice

In the case of CN(CCCl)CCCl, the T/C (dose: 0.08 mg/kg/injection) is reported as 117 % of control [survivor count not shown], the T/C (dose: 0.09 mg/kg/injection) is reported as 81 % of control [survivor count not shown] and the T/C (dose: 0.11 mg/kg/injection) is reported as 36 % of control [survivor count not shown]. For the same compound, the T/C (dose: 0.12 mg/kg/injection) was 67 % of control [survivor count not shown], the T/C (dose: 0.18 mg/kg/injection) was 84 % of control [survivor count not shown] and the T/C (dose: 0.22 mg/kg/injection) was 24 % of control [survivor count not shown]. The T/C (dose: 0.25 mg/kg/injection) was 101 % of control [survivor count not shown], the T/C (dose: 0.27 mg/kg/injection) was 76 % of control [survivor count not shown] and the T/C (dose: 0.35 mg/kg/injection) was 111 % of control [survivor count not shown]. For the same compound, the T/C (dose: 0.5 mg/kg/injection) was 50 % of control [survivor count not shown], the T/C (dose: 12.0 micrograms/kg/injection) was 59 % of control [survivor count not shown] and the T/C (dose: 24.0 micrograms/kg/injection) was 49 % of control [survivor count not shown]. For the same compound, the T/C (dose: 44.0 micrograms/kg/injection) was 23 [survivor count not shown], 67 [survivor count not shown], 90 % of control [survivor count not shown], the T/C (dose: 48.0 micrograms/kg/injection) was 74 % of control [survivor count not shown] and the T/C (dose: 55.0 micrograms/kg/injection) was 69 [survivor count not shown], 133 [survivor count not shown], 141 % of control [survivor count not shown]. For the same compound, the T/C (dose: 73.0 micrograms/kg/injection) was 57 [survivor count not shown] and 120 % of control [survivor count not shown], the T/C (dose: 95.0 micrograms/kg/injection) was 99 % of control [survivor count not shown] and the T/C (dose: 110.0 micrograms/kg/injection) was 82 [survivor count not shown] and 153 % of control [survivor count not shown]. The T/C (dose: 220.0 micrograms/kg/injection) was 98 [survivor count not shown] and 132 % of control [survivor count not shown].
